Assay results reported in patent publication US4568666A, “Carboxylalkyl peptide derivatives” (G. D. Searle & Co., priority 1984, dated 1986).
For at least one compound, name, drawing or mass did not settle the structure.

System: rat model of inflammatory arthritis
Assay: Rat model of inflammatory arthritis induced by Type II collagen (Trentham et al.)
Assay type: in vivo
Conditions: mean of experiments 1-3; Example 11 100 mg/kg i.p. twice daily; prednisolone 0.625 mg/kg b.i.d.
Procedure: The therapeutic effectivness is assessed in the rat model of inflammatory arthritis described by Trentham et al. (1977). In this model, the arthritis, induced by an intradermal injection of Type II collagen, generally develops in both hind paws and the progression and severity of the lesion are monitored by physical measurements of the malleolar width and ankle extensibility.
The compound of Example II in the present specification was administered by intraperitoneal injections at 100 mg/kg twice daily for 21 days commencing seven days after the injection of the disease.
Drugs (Example 11 or prednisolone) and vehicle were administered to groups of 10 rats each. Physical measurements on the rat paws were made weekly for four weeks and consisted of (a) the distance between the medial and lateral malleolus (malleolar width) and (b) the ankle extension which was measured by applying a standard force to th rat paw and measuring the angle formed between the flexor surface of the foot and the tibia. Evidence of a therapeutic effect was denoted by a significant reduction in malleolar width and a significant increase in ankle extension. Both measurements were carried out in apparatus designed for the purpose. Area-under-the-curve data from these time course experiments was examinaed by non-parametic statistical analysis. […]

With `CNC(=O)[C@H](Cc1ccc(OC)cc1)NC(=O)[C@H](CC(C)C)N[C@H](CCNC(=O)OCc1ccccc1)C(=O)O` [Example 11, N-[3-N-(Benzyloxycarbonyl)amino-1-(R)-carboxypropyl]-L-leucyl-O-methyl-L-tyrosine N-Methylamide] the “Malleolar width, percentage change from control, mean” value was 5.0. %.
